In PubChem BioAssay AID248 (DTP/NCI, 2004):
The list shows only some results of the screen, not a fair sample: it is rich in T/C values a quarter to a half above the control, in often repeated tests (any T/C) and in doses without a T/C. Further doses and runs are listed elsewhere. T/C: endpoint of the treated group in % of that of the vehicle group. Some entries give survivors of the animals treated and no T/C: the source files T/C as zero there, which appears to mark a toxic dose or a test without result, not a measured value. Some doses without a T/C left all or most animals alive at the check, yet need not have been tolerated: the source hardly ever lists a survival T/C far under the control, and the zero likely stands for such cases as well. Counts of survivors are from the toxicity check (mostly the fifth day) where no day follows; animals may have died later. Schedule codes are those of the source, read here as Q, the interval in days (D) or hours (H), X, the number of doses. Some molecules as drawn cover several salts, stereoisomers or complexes of the source; a dose is that of the sample tested. Some doses were run more than once; the results are listed from low to high. Where survival is the endpoint, the PubChem record calls one and a half times the control and up active, and a quarter to a half above the control has no call in these data; cut-offs in other NCI protocols can differ.

Test system: L1210 leukemia ip in BDF1 mice, survival T/C
Test: NCI In Vivo Anticancer Drug Screen. Data for tumor model L1210 Leukemia (intraperitoneal) in B6D2F1 (BDF1) mice
Conditions: T/C endpoint: mean survival time, higher T/C = longer survival
[1] = dose: 200.0 mg/kg/injection, schedule: Q04DX002 (ip), vehicle: saline with Tween-80
[2] = dose: 400.0 mg/kg/injection, schedule: Q04DX002 (ip), vehicle: saline with Tween-80
[3] = dose: 400.0 mg/kg/injection, schedule: Q01DX009 (ip), vehicle: Klucel (hydroxypropylcellulose) (HPC)
[4] = dose: 400.0 mg/kg/injection, schedule: Q04DX003 (ip), vehicle: Klucel (hydroxypropylcellulose) (HPC)
[5] = dose: 200.0 mg/kg/injection, schedule: Q04DX003 (ip), vehicle: saline
[6] = dose: 400.0 mg/kg/injection, schedule: Q04DX003 (ip), vehicle: saline
[7] = dose: 400.0 mg/kg/injection, schedule: Q01DX001 (ip), vehicle: saline
[8] = dose: 100.0 mg/kg/injection, schedule: Q04DX003 (ip), vehicle: saline with Tween-80
[9] = dose: 200.0 mg/kg/injection, schedule: Q04DX003 (ip), vehicle: saline with Tween-80
[10] = dose: 400.0 mg/kg/injection, schedule: Q04DX003 (ip), vehicle: saline with Tween-80
[11] = dose: 200.0 mg/kg/injection, schedule: Q01DX009 (ip), vehicle: saline
[12] = dose: 400.0 mg/kg/injection, schedule: Q01DX009 (ip), vehicle: saline
[13] = dose: 100.0 mg/kg/injection, schedule: Q01DX009 (ip), vehicle: saline

Structure (SMILES): C[CH2][Sn]([I])([CH2]C)[CH2]C
- survivor count (dose: 50.0 mg/kg/injection, schedule: Q04DX002 (ip), vehicle: gum acacia): 2 of 3
- survivor count (dose: 100.0 mg/kg/injection, schedule: Q04DX002 (ip), vehicle: gum acacia): 1 of 3
- survivor count (dose: 100.0 mg/kg/injection, schedule: Q04DX002 (ip), vehicle: saline with Tween-80): 0 of 3
- survivor count (dose: 200.0 mg/kg/injection, schedule: Q04DX002 (ip), vehicle: gum acacia): 1 of 3
- survivor count [1]: 0 of 3
- survivor count (dose: 400.0 mg/kg/injection, schedule: Q04DX002 (ip), vehicle: gum acacia): 0 of 3
- survivor count [2]: 0 of 3

Structure (SMILES): O=C(NC(=O)C(Cl)Cl)OC1c2cc(Cl)ccc2-c2c(Cl)cc(Cl)cc21 (stereo unspecified)
- survivor count [3]: 3 of 6

Structure (SMILES): Cc1ccc(C)c(NC(=O)Oc2ccc(C(=O)OCc3ccccc3)cc2)c1
- survivor count [3]: 5 of 6

Structure (SMILES): Cc1c(C)c(CO)c(C)c(C)c1CO
- survivor count (dose: 100.0 mg/kg/injection, schedule: Q04DX003 (ip), vehicle: Klucel (hydroxypropylcellulose) (HPC)): 3 of 6
- survivor count (dose: 200.0 mg/kg/injection, schedule: Q04DX003 (ip), vehicle: Klucel (hydroxypropylcellulose) (HPC)): 0 of 6
- survivor count [4]: 0 of 6

Structure (SMILES): CCCCOc1ccc(N)cn1
- survivor count [5]: 6 of 6
- survivor count [6]: 0 of 6

Structure (SMILES): N#CC1C2C=CC(CC2)C1C#N (stereo unspecified) (tested in a mixture with another compound)
- survivor count (dose: 20.0 mg/kg/injection, schedule: Q01DX001 (ip), vehicle: saline): 1 of 4
- survivor count (dose: 40.0 mg/kg/injection, schedule: Q01DX001 (ip), vehicle: saline): 0 of 4
- survivor count (dose: 50.0 mg/kg/injection, schedule: Q01DX001 (ip), vehicle: saline): 0 of 4
- survivor count (dose: 80.0 mg/kg/injection, schedule: Q01DX001 (ip), vehicle: saline): 0 of 4
- survivor count (dose: 100.0 mg/kg/injection, schedule: Q01DX001 (ip), vehicle: saline): 0 of 4
- survivor count (dose: 200.0 mg/kg/injection, schedule: Q01DX001 (ip), vehicle: saline): 0 of 4
- survivor count [7]: 0 of 4

Structure (SMILES): CC1CCCC(C)N1CC(O)c1ccccc1 (stereo unspecified)
- survivor count [8]: 2 of 6
- survivor count [9]: 0 of 6
- survivor count [10]: 0 of 6

Structure (SMILES): Cc1ccc(S(=O)(=O)OCC(CO)(CO)[N+](=O)[O-])cc1
- survivor count [6]: 2 of 6

Structure (SMILES): S=c1nc[nH]c2c1ncn2CN1CCOCC1
- T/C (dose: 50.0 mg/kg/injection, schedule: Q01DX015 (ip), vehicle: saline): 135 % of control
- T/C (dose: 72.0 mg/kg/injection, schedule: Q01DX009 (ip), vehicle: carboxymethylcellulose (CMC)): 126 % of control
- T/C (dose: 177.6 mg/kg/injection, schedule: Q01DX001 (ip), vehicle: carboxymethylcellulose (CMC)): 132 % of control
- T/C (dose: 200.0 mg/kg/injection, schedule: Q01DX001 (ip), vehicle: carboxymethylcellulose (CMC)): 149 % of control
- survivor count [11]: 6 of 6
- T/C (dose: 266.8 mg/kg/injection, schedule: Q01DX001 (ip), vehicle: carboxymethylcellulose (CMC)): 129 % of control
- T/C [7]: 141 % of control
- survivor count [12]: 3 of 6
- survivor count (dose: 600.0 mg/kg/injection, schedule: Q01DX001 (ip), vehicle: carboxymethylcellulose (CMC)): 1 of 4
- survivor count (dose: 800.0 mg/kg/injection, schedule: Q01DX009 (ip), vehicle: saline): 0 of 6

Structure (SMILES): CC1CC(NCCO)CC(C)(C)C1 (stereo unspecified)
- survivor count (dose: 300.0 mg/kg/injection, schedule: Q01DX001 (ip), vehicle: acid diluted with saline): 0 of 6

Structure (SMILES): COc1cccc(C(=O)C=C(C(F)(F)F)C(F)(F)F)c1
- survivor count [8]: 2 of 6
- survivor count [9]: 4 of 6
- survivor count [10]: 0 of 6

Structure (SMILES): CCCCCCCC[As](=O)(O)O
- survivor count (dose: 12.5 mg/kg/injection, schedule: Q01DX001 (ip), vehicle: carboxymethylcellulose (CMC)): 0 of 4
- survivor count (dose: 25.0 mg/kg/injection, schedule: Q01DX001 (ip), vehicle: carboxymethylcellulose (CMC)): 0 of 4
- survivor count (dose: 50.0 mg/kg/injection, schedule: Q01DX001 (ip), vehicle: carboxymethylcellulose (CMC)): 0 of 4

Structure (SMILES): CCCCCC[n+]1cccc(C(N)=O)c1
- survivor count [4]: 3 of 6

Structure (SMILES): N#C/C(=C\c1ccccc1Cl)c1cccc(Cl)c1
- survivor count (dose: 200.0 mg/kg/injection, schedule: Q01DX009 (ip), vehicle: other): 6 of 6
- survivor count (dose: 400.0 mg/kg/injection, schedule: Q01DX009 (ip), vehicle: other): 6 of 6

Structure (SMILES): CCCC[As](=O)(O)CC
- survivor count (dose: 50.0 mg/kg/injection, schedule: Q01DX009 (ip), vehicle: saline): 2 of 3
- survivor count [13]: 0 of 3 and 5 of 6
- survivor count [11]: 0 of 6
- survivor count [12]: 0 of 6

Structure (SMILES): Clc1c(Cl)c(Cl)c([S][Pb]([c]2ccccc2)([c]2ccccc2)[c]2ccccc2)c(Cl)c1Cl
- survivor count (dose: 50.0 mg/kg/injection, schedule: Q01DX009 (ip), vehicle: saline with Tween-80): 3 of 3
- survivor count (dose: 100.0 mg/kg/injection, schedule: Q01DX009 (ip), vehicle: saline with Tween-80): 0 of 3
- survivor count [1]: 3 of 3
- survivor count [2]: 2 of 3

Structure (SMILES): C=CCn1c2c(c3ccccc31)CCC2
- survivor count (dose: 200.0 mg/kg/injection, schedule: Q01DX009 (ip), vehicle: saline with Tween-80): 1 of 3

Structure (SMILES): CCCCCCCCCCCC[N+](CCO)(CCO)Cc1ccccc1
- survivor count (dose: 12.5 mg/kg/injection, schedule: Q01DX009 (ip), vehicle: saline): 1 of 6
- survivor count (dose: 25.0 mg/kg/injection, schedule: Q04DX003 (ip), vehicle: saline): 2 of 6
- survivor count (dose: 50.0 mg/kg/injection, schedule: Q04DX003 (ip), vehicle: saline): 1 of 6
- survivor count (dose: 100.0 mg/kg/injection, schedule: Q04DX003 (ip), vehicle: saline): 0 of 6
- survivor count [5]: 0 of 6
- survivor count [6]: 0 of 6

Structure (SMILES): O=C(CC(=O)CC(O)(C(F)(F)F)C(F)(F)F)CC(O)(C(F)(F)F)C(F)(F)F
- survivor count (dose: 10.0 mg/kg/injection, schedule: Q01DX009 (ip), vehicle: saline): 0 of 6

Structure (SMILES): CCCCC(=O)N/N=C/c1ccccc1O
- survivor count (dose: 100.0 mg/kg/injection, schedule: Q01DX009 (ip), vehicle: Klucel (hydroxypropylcellulose) (HPC)): 6 of 6
- survivor count (dose: 200.0 mg/kg/injection, schedule: Q01DX009 (ip), vehicle: Klucel (hydroxypropylcellulose) (HPC)): 6 of 6
- survivor count [3]: 6 of 6

Structure (SMILES): Cc1ccc(NCC(O)CN2CCCCC2)cc1 (stereo unspecified)
- survivor count (dose: 75.0 mg/kg/injection, schedule: Q01DX009 (ip), vehicle: saline): 0 of 6
- survivor count (dose: 150.0 mg/kg/injection, schedule: Q01DX009 (ip), vehicle: saline): 0 of 6
- survivor count (dose: 300.0 mg/kg/injection, schedule: Q01DX009 (ip), vehicle: saline): 0 of 6

Structure (SMILES): C=C(C)COC(OCC(=C)C)C(C)C
- survivor count [3]: 3 of 3

Structure (SMILES): O=C1C=CC(=Nc2ccc3c(c2)C(Br)c2ccccc2-3)O1 (stereo unspecified)
- survivor count (dose: 18.0 mg/kg/injection, schedule: Q01DX009 (ip), vehicle: saline): 3 of 6
- survivor count (dose: 25.0 mg/kg/injection, schedule: Q01DX001 (ip), vehicle: acetone): 1 of 6
- survivor count (dose: 28.0 mg/kg/injection, schedule: Q04DX003 (ip), vehicle: saline): 3 of 6
- survivor count (dose: 40.0 mg/kg/injection, schedule: Q04DX003 (ip), vehicle: saline): 1 of 6
- survivor count (dose: 50.0 mg/kg/injection, schedule: Q01DX001 (ip), vehicle: acetone): 0 of 6

Structure (SMILES): CC[n+]1ccc2cc(OC)c(OC)cc2c1Cc1ccc(OC)c(OC)c1
- survivor count [13]: 0 of 6
- survivor count [5]: 2 of 6
- survivor count [6]: 0 of 6
